# According to PubChem BioAssay (Tox21):
# The shares of active, inactive and inconclusive entries below differ from those in the screen. Where the call is inconclusive, the potency comes from a doubtful curve fit. Active and inactive are the calls of the source. The call rests on the fitted dose curve; in most records, active means well fitted cell-killing curve with a large enough effect in the repeat runs; inconclusive means weak or mixed curves, or effect the other way; inactive means flat fitted curve, though single readings scatter.
# Assay: cAMP Responsive Elements (CRE) small molecule agonists, cell-based qHTS assay: qHTS cell viability counter screen (AID 2060914); further: nearly all actives have a fitted effect of over 50% in size
# Conditions: CRE-bla HEK293T viability, CellTiter-Glo luminescence, 5 h; series mostly up to 92.4 µM
# How it was run: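 Cytotoxicity was measured as ATP luminescence (CellTiter-Glo, 30 min at room temperature) in the same wells as the CRE-bla FRET read-out. HEK293T CRE-bla cells had 3 h compound exposure at 37C/5% CO2.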
# On the % scale 0 is the no-effect control and ±100 the full control effect; potency means the concentration at half of the fitted maximal effect.
SMILES,Potency,"activity change, negative = cytotoxicity"
CO[C@H]1O[C@H](CO)[C@@H](O)[C@H](O)[C@H]1O,inactive,
Cc1oc(=O)oc1COC(=O)[C@@H]1N2C(=O)[C@@H](NC(=O)[C@H](N)c3ccccc3)[C@H]2SC1(C)C,"inconclusive: 33.5 µM [rising, single point]",
NC(=O)[C@@H]1CSSCCC(=O)N[C@@H](CCCCN=C(N)N)C(=O)NCC(=O)N[C@@H](CC(=O)O)C(=O)N[C@@H](Cc2c[nH]c3ccccc23)C(=O)N2CCC[C@H]2C(=O)N1,"inconclusive: 37.6 µM [rising, partial curve, poor fit]",
O=C(Nc1ccccc1SSc1ccccc1NC(=O)c1ccccc1)c1ccccc1,inactive,
CC1OCCC1=O (centres undefined),inactive,
CCN(CC)C(=O)C1CN2CCc3cc(OC)c(OC)cc3C2CC1OC(C)=O (centres undefined),inactive,
CCC(=O)OC(C)c1ccccc1 (centres undefined),"inconclusive: 3.06 µM [cytotoxic, single point]",
C=CC(=C)CCC=C(C)C,"inconclusive: 0.611 µM [cytotoxic, full curve, poor fit]",
CCN(CC#N)c1cccc(C)c1,"inconclusive: 0.611 µM [cytotoxic, single point]",
O=c1[nH]c(=O)c2ccccc2o1,inactive,
O=C(Nc1ccc(C(=O)O)c(O)c1)c1ccccc1,inactive,
Nc1ccc(Cl)c(N)c1,inactive,
C[C@@H]1NC(=O)[C@@H](N)CNC(=O)[C@H](C2CCNC(N)=N2)NC(=O)/C(=C/NC(N)=O)NC(=O)[C@H](CNC(=O)C[C@@H](N)CCCN)NC1=O (some centres undefined),"inconclusive: 0.0047 µM [cytotoxic, single point]",
CC1=CC(=O)CC(C)(C)C1,inactive,
O=C(O)c1cc(O)c(O)c(O)c1,"inconclusive: 27.6 µM [cytotoxic, single point]",
C[C@@H]1C[C@H]2[C@@H]3CCC4=CC(=O)C=C[C@]4(C)[C@@]3(Cl)[C@@H](O)C[C@]2(C)[C@@]1(OC(=O)c1ccco1)C(=O)CCl,inactive,
C[C@H](O)C(=O)Nc1c(I)c(C(=O)NC(CO)CO)c(I)c(C(=O)NC(CO)CO)c1I,"inconclusive: 33.5 µM [cytotoxic, partial curve, poor fit]",
Oc1cccc2ccccc12,"inconclusive: 0.007 µM [rising, full curve, poor fit]",
O=C(O)c1ccc2c(c1)nc(C(=O)NC1CCN(C3CC3)CC1)n2Cc1cc(-c2ccc(Cl)s2)on1,,inactive: -9.02% [at 18.9 µM]
COc1cc(N)c(Cl)cc1C(=O)NC1CCN(CCCOc2ccc(F)cc2)CC1OC (centres undefined),"inconclusive: 0.298 µM [cytotoxic, single point]",

# In another format: entries from further up
SMILES | Potency | activity change, negative = cytotoxicity
CCC(=O)OC(C)c1ccccc1 (centres undefined) | inconclusive: 3.06 µM [cytotoxic, single point] | 
C=CC(=C)CCC=C(C)C | inconclusive: 0.611 µM [cytotoxic, full curve, poor fit] | 
CCN(CC#N)c1cccc(C)c1 | inconclusive: 0.611 µM [cytotoxic, single point] | 
O=c1[nH]c(=O)c2ccccc2o1 | inactive | 
O=C(Nc1ccc(C(=O)O)c(O)c1)c1ccccc1 | inactive | 
Nc1ccc(Cl)c(N)c1 | inactive | 
C[C@@H]1NC(=O)[C@@H](N)CNC(=O)[C@H](C2CCNC(N)=N2)NC(=O)/C(=C/NC(N)=O)NC(=O)[C@H](CNC(=O)C[C@@H](N)CCCN)NC1=O (some centres undefined) | inconclusive: 0.0047 µM [cytotoxic, single point] | 
CC1=CC(=O)CC(C)(C)C1 | inactive | 
O=C(O)c1cc(O)c(O)c(O)c1 | inconclusive: 27.6 µM [cytotoxic, single point] | 
C[C@@H]1C[C@H]2[C@@H]3CCC4=CC(=O)C=C[C@]4(C)[C@@]3(Cl)[C@@H](O)C[C@]2(C)[C@@]1(OC(=O)c1ccco1)C(=O)CCl | inactive | 
C[C@H](O)C(=O)Nc1c(I)c(C(=O)NC(CO)CO)c(I)c(C(=O)NC(CO)CO)c1I | inconclusive: 33.5 µM [cytotoxic, partial curve, poor fit] | 

# Following part:

SMILES,Potency,"activity change, negative = cytotoxicity"
Clc1nc2ccccc2s1,"inconclusive: 68.6 µM [cytotoxic, partial curve, poor fit]",
CCCCCCC(=O)O,"inconclusive: 15.4 µM [cytotoxic, single point]",
NC1CCN(c2cccc(Cl)n2)CC1,"inconclusive: 18.8 µM [cytotoxic, single point]",
O=C1CN(/N=C/c2ccc([N+](=O)[O-])o2)C(=O)N1,"inconclusive: 29.8 µM [cytotoxic, partial curve, poor fit]",
COc1cc(S(=O)(=O)O)c(C)cc1N=Nc1c(O)ccc2cc(S(=O)(=O)O)ccc12,"inconclusive: 13.7 µM [cytotoxic, full curve, poor fit]",
CO/N=C(\C(=O)O)c1csc(NC(=O)CCl)n1,inactive,
COc1ccc(-n2nc(C(F)F)cc2-c2ccc(S(C)=O)cc2)cc1 (centres undefined),inactive,
COc1cc(C)nc(-n2nc(C)cc2OC)n1,inconclusive: 0.0008 µM,
C[C@](N)(Cc1ccc(O)c(O)c1)C(=O)O,inactive,
CC[C@H](C)C(=O)O[C@H]1C[C@H](O)C=C2C=C[C@H](C)[C@H](CC[C@@H](O)C[C@@H](O)CC(=O)O)[C@H]21,active: 5.45 µM,
CC(C)(C)[C@@H](O)[C@@H](Cc1ccc(Cl)cc1)n1cncn1,"inconclusive: 2.17 µM [cytotoxic, partial curve, poor fit]",
O=C(O)c1ccccc1C(=O)OCc1ccccc1,inactive,
Cc1ccco1,"inconclusive: 30 µM [rising, full curve, poor fit]",
O=[N+]([O-])c1ccc(/C=N\O)o1,"inconclusive: 0.0944 µM [cytotoxic, full curve, poor fit]",
CCCCCCCCCCCC(=O)NCCCN(C)C,inconclusive: 61.1 µM [cytotoxic],
Cl[Si](Cl)(c1ccccc1)c1ccccc1,inactive,
Nc1cccc(C(F)(F)F)c1,"inconclusive: 5.45 µM [cytotoxic, single point]",
CC(C)(C)C1CCC(CC2=C(O)c3ccccc3C(=O)C2=O)CC1 (centres undefined),"inconclusive: 7.5 µM [cytotoxic, full curve, poor fit]",
CC(=O)OCC(=O)[C@@]1(O)CC[C@H]2[C@@H]3CCC4=CC(=O)C=C[C@]4(C)[C@H]3[C@@H](O)C[C@@]21C,"inconclusive: 18.8 µM [cytotoxic, partial curve, poor fit]",
